Among the data in paper PMC7862700 are binding signal values, retold here.

The list shows a part of the results, in another mix than the full data. At the low end of the ranking the order means little.

Common to all, as to test: DAPPL (digital affinity profiling via proximity ligation, sequencing)
What all share (conditions): 10 mM Tris-HCl pH 7.5, 50 mM NaCl, 1 mM DTT, 4% glycerol, room temperature, 30 min; GST-TFs on glutathione beads, 16-mer random dsDNA library, 0.1% …; high values mean tight binding; double strand, one strand shown; scale: fold enrichment (6-mer frequency, TF over GST control)

One assay deals with T1, ELK1 (UniProt P19419).
T1 sequence: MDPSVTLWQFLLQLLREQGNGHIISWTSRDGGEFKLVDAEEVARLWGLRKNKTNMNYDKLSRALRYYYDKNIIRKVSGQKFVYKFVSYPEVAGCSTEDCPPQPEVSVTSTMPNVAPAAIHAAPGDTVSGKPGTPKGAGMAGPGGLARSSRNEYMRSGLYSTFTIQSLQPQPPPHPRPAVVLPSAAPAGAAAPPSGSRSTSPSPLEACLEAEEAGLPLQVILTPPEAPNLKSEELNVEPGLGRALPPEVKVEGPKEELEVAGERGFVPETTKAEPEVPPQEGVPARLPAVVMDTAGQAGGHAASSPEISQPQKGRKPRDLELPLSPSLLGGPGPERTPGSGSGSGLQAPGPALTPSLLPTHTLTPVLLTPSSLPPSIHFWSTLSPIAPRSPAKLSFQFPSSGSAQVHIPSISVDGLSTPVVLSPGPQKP

The next assay deals with T2, SPIC (UniProt Q8N5J4).
T2 sequence: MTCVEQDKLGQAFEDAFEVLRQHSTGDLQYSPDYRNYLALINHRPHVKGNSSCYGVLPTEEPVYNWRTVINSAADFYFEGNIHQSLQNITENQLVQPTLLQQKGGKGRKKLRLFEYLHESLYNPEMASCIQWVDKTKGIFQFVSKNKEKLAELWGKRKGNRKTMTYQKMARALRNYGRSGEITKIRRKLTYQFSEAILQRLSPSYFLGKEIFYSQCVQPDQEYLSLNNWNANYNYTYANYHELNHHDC

A further assay addresses T3, ETS2 (UniProt P15036).
T3 sequence: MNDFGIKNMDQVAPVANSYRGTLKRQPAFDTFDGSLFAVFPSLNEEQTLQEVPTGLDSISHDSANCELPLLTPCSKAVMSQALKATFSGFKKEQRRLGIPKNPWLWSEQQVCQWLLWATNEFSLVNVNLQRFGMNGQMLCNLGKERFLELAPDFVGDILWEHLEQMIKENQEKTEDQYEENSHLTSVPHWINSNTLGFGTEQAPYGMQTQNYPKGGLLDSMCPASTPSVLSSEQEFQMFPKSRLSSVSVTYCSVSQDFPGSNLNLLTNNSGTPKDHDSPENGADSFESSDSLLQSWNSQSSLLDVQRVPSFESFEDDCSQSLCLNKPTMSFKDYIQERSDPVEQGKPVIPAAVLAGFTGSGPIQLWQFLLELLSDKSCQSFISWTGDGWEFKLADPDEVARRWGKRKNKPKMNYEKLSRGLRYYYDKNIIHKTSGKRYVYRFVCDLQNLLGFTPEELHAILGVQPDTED

The next assay deals with T4, ETV3 (UniProt P41162-2).
T4 sequence: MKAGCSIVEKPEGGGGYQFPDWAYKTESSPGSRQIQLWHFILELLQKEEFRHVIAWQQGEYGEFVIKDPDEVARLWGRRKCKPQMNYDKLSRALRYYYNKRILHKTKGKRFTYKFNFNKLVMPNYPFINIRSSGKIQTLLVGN

The target of another assay is T5, ELK3 (UniProt P41970).
T5 sequence: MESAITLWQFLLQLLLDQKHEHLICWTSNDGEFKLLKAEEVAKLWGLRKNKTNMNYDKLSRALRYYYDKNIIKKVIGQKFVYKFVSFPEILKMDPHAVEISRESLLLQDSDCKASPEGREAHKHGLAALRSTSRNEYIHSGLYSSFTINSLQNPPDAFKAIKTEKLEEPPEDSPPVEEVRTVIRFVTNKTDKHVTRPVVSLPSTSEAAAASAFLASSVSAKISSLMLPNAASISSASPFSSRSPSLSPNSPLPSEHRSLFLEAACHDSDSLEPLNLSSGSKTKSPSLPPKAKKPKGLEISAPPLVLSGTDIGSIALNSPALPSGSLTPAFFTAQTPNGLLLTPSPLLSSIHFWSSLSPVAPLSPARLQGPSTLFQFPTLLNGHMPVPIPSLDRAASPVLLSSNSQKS

In the case of GTATAC, the binding signal with ELK1 was determined as 1.3; with SPIC, 1.2; in the assay with ETS2 it was 1.32.
On the same counts, the results for ATTGTC are 1.07, 0.985 and 1.17.
The like results for TTCGAC were, in that order, 1.51, 1.35 and 1.42.
On to CGGGCT, for which the binding signal turned out to be 0.987 with ELK1, 0.934 with SPIC, 1.07 in the assay with ETS2 and 0.959 with ETV3.
The like results for CAAAGA were, in that order, 0.962, 0.95, 0.939 and 0.928.
Turning to CACAAC, the values for the binding signal with ELK1 and in the assay with SPIC were 1.24 and 1.25, respectively.
On to GTTTGT, for which the binding signal with ELK1 is 0.968; in the assay with SPIC, 1.01; in the assay with ETS2 it was 0.965.
On the same counts, the results for GCCTGT are 0.937, 0.997 and 0.843.
As for CTGTAT, the binding signal with ELK1 stood at 1.28; in the assay with SPIC it was 1.51; with ETS2 it was 1.22.
With ATCAAG, the binding signal worked out at 0.972 with ELK1, 0.972 with SPIC, 0.926 in the assay with ETS2 and 0.957 in the assay with ETV3.
Consider CACCAA, for which the binding signal with ELK1 is 1.16; in the assay with SPIC, 1.12; in the assay with ETS2, 0.988.
Turning to ACGCGG, the binding signal with ELK1 was determined as 0.969; with SPIC, 0.975; in the assay with ETS2, 0.993.
On to CTCGCA, for which the binding signal amounted to 1.25 with ELK1, 1.43 with SPIC and 1.35 with ETS2.
In the case of GGTTCT, the binding signal with ELK1 is 1.02; with SPIC, 0.996; with ETS2, 0.907.
The like results for GTAAAT were, in that order, 1.09, 1.09 and 1.18.
As to GCTAAC, the binding signal with ELK1 was 1.1; with SPIC it was 0.959; with ETS2, 0.992.
On the same counts, the results for TAAAGG are 1.03, 1.11 and 0.988.
On to AGCTCG, for which the binding signal was 0.975 with ELK1, 0.994 in the assay with SPIC, 1.01 with ETS2 and 0.946 with ETV3.
The like results for AGGCTA were, in that order, 0.98, 0.979, 0.971 and 0.909.
Take CAAGCT: the values for the binding signal in the assay with ELK1, with SPIC and with ETS2 were 0.99, 0.918 and 0.952, respectively.
Consider GAATGA, for which the binding signal amounted to 0.988 with ELK1, 0.82 with SPIC, 0.943 in the assay with ETS2 and 0.865 with ETV3.
The like results for TGGGTA were, in that order, 0.965, 1.03, 0.996 and 0.909.
In the case of GCGCCC, the binding signal in the assay with ELK1 worked out at 1.1; with SPIC, 1.01; in the assay with ETS2 it was 1.05.
Take TAGAAA: the binding signal is 1.03 in the assay with ELK1 and 1.12 in the assay with SPIC.
In the case of TAACTT, the results for the binding signal in the assay with ELK1, with SPIC and in the assay with ETS2 were 1.39, 1.56 and 1.38, respectively.
As to TGGGCG, the binding signal is 0.939 in the assay with ELK1, 0.953 with SPIC, 0.82 in the assay with ETS2 and 0.865 in the assay with ETV3.
For the sequence GTGTTA, the binding signal with ELK1 was 1.02; with SPIC it was 0.872; in the assay with ETS2, 0.978; with ETV3, 0.998.
Consider TTTATC, for which the binding signal in the assay with ELK1 was found to be 1.27; with SPIC, 1.26.
In the case of AGTTAT, the binding signal with ELK1 turned out to be 0.938; with SPIC, 0.944; in the assay with ETS2, 0.919; in the assay with ETV3, 0.902.
As to ACTTCT, the binding signal was 1.53 with ELK1, 1.47 with SPIC and 1.4 with ETS2.
For AGCGGC, the binding signal in the assay with ELK1 amounted to 0.956; in the assay with SPIC, 0.946; in the assay with ETS2 it was 0.919; with ETV3, 0.919.
In the case of GGGTAT, the binding signal with ELK1 amounted to 0.946; with SPIC it was 0.96; in the assay with ETS2, 1.02; with ETV3 it was 0.943.
Turning to ACCTTT, the binding signal was determined as 1.33 in the assay with ELK1 and 1.58 in the assay with SPIC.
For the sequence TATGAT, the binding signal with ELK1 amounted to 1.18; in the assay with SPIC it was 1.29; with ETS2, 1.17.
AATCCA: the binding signal was 1.07 with ELK1 and 0.97 with SPIC.
Turning to CCTGGC, the binding signal with ELK1 turned out to be 0.977; with SPIC, 0.893; with ETS2, 0.996.
For AAATAC, the binding signal came out at 1.27 with ELK1 and 1.3 with SPIC.
Take GATCAT: the binding signal with ELK1 came to 0.973; with ELK3, 1.1; in the assay with SPIC, 0.912; with ETS2, 0.97; with ETV3, 0.926.
On the same counts, the results for AGTACG are 0.879, 0.894, 0.913, 0.854 and 0.996.
